Data from patent US20150110766A1 (UNIVERSITY ULM, published 2015).
No constants are given. Whether binding was seen depends on the method and setting. Some binding calls cover weakened binding; strength is not graded here.

By UniProt entry, the sequences of proteins in these tests, tags left out. Where a name states a change or a piece, a line headed by the entry shows the natural chain unless it says otherwise. Residues count along the entry.
UniProt P01024: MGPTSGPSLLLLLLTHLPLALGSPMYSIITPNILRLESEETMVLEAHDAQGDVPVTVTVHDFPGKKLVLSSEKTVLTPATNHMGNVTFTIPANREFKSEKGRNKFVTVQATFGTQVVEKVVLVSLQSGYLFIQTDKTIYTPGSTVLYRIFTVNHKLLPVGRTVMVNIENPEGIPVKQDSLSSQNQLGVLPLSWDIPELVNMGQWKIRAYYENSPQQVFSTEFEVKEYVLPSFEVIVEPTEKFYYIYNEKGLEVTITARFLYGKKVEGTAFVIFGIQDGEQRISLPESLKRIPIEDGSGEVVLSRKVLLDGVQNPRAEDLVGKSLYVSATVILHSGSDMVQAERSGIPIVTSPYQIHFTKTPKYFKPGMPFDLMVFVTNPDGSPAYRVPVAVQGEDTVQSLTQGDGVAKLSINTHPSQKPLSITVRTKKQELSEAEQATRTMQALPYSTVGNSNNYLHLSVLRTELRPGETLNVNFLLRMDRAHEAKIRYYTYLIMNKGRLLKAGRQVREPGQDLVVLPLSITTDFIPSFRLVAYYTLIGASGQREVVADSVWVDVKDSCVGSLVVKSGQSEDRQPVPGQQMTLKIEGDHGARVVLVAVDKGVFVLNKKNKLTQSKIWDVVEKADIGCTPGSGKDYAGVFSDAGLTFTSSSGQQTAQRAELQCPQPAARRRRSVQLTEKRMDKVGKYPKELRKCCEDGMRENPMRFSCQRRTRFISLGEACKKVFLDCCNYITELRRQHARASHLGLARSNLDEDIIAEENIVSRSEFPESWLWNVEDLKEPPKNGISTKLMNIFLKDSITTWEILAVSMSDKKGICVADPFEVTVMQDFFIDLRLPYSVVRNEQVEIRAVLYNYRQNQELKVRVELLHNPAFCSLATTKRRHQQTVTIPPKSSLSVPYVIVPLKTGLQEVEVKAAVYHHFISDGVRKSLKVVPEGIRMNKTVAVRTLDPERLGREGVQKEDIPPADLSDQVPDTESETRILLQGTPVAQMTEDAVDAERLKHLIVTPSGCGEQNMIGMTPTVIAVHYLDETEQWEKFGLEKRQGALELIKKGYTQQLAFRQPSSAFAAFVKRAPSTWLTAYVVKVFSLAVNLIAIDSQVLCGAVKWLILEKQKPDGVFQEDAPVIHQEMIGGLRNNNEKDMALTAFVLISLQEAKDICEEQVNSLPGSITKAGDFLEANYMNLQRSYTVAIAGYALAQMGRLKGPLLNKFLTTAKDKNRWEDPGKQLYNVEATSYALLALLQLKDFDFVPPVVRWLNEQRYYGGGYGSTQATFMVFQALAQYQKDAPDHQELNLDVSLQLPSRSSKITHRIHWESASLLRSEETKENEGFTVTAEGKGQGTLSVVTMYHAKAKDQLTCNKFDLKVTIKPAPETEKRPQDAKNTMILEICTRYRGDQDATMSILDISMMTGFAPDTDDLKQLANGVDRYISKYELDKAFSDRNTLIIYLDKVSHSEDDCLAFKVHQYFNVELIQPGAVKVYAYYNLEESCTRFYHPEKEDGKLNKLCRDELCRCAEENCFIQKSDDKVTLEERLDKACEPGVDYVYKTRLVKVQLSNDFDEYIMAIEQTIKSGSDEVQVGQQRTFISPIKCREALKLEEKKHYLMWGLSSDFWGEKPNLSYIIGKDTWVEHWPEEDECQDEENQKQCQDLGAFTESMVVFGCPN
UniProt P08603, residues 19-264: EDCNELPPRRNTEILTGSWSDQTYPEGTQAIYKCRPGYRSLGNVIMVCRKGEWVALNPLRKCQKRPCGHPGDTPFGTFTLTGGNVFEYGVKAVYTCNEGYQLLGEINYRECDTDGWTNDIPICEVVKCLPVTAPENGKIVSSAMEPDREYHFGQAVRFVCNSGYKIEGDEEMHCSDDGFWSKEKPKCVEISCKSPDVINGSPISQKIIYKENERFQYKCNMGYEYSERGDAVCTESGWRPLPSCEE

Experiments:
[1] = molecular target: T1, C3b (UniProt P01024 749-1663; P01024 23-667); assay: SPR, fitted affinity curves for C3b normalised to Rmax
T1 construct: Immobilised on a CM5 chip; A small amount was amine-coupled and the majority deposited via the reactive thioester by on-chip AP convertase; also called complement fragment C3b; deposited C3b

[2] = molecular target: T1, C3b; assay: SPR, affinity determination on deposited C3b

Substance: FH1-4 (from UniProt P08603 19-264)
- binding [1]: binds
- binding [2]: binds
